According to publication doi:10.1101/799536:
Results are given in words; binding and its absence hold for the method and conditions named. Binding seen in cells or lysates may run through a third protein. Some entries that bind do so weakly or less than the wild type.

Amino acid sequences for entries named in this document (tags omitted).
UniProt Q3TKT4: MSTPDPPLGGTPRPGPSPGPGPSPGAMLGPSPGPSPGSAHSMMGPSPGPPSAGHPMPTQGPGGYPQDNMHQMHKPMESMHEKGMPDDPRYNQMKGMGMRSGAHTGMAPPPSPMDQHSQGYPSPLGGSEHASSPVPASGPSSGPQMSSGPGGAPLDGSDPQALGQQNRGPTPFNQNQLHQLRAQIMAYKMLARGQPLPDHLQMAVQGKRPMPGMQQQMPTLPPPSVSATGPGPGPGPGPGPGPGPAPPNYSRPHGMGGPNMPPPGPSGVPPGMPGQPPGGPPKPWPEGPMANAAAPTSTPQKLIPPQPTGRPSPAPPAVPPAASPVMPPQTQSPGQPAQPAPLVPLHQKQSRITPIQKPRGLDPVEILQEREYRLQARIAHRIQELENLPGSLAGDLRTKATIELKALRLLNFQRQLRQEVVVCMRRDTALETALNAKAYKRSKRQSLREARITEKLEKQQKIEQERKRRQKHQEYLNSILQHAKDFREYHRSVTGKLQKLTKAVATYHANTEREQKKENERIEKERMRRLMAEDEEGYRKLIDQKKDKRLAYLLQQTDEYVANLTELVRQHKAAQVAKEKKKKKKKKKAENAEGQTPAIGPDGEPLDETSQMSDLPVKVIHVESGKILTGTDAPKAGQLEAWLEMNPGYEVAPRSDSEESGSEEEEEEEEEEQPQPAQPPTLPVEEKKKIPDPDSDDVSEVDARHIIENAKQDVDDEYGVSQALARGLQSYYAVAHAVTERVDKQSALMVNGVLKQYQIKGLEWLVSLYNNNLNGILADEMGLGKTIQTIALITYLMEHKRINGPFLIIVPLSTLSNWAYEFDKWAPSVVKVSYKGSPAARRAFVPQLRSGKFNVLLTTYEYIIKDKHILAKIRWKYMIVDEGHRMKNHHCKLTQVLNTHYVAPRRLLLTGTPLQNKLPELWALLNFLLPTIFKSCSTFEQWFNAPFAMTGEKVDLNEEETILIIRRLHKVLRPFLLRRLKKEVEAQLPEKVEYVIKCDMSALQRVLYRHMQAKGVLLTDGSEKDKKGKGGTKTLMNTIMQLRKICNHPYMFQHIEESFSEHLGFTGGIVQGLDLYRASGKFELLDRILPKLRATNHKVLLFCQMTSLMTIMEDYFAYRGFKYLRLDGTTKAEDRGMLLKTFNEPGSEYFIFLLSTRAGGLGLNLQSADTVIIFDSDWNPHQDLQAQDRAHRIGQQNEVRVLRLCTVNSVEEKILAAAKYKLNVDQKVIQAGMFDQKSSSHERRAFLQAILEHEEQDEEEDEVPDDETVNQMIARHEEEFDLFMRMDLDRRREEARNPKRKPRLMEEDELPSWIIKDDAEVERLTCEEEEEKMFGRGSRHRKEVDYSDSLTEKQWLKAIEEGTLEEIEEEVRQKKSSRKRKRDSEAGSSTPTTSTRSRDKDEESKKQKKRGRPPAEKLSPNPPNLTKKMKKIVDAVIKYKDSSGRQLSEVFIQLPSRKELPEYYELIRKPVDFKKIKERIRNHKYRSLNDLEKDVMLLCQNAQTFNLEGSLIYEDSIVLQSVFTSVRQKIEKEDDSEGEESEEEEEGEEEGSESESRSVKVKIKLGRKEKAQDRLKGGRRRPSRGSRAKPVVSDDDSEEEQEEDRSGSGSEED
UniProt Q924A2: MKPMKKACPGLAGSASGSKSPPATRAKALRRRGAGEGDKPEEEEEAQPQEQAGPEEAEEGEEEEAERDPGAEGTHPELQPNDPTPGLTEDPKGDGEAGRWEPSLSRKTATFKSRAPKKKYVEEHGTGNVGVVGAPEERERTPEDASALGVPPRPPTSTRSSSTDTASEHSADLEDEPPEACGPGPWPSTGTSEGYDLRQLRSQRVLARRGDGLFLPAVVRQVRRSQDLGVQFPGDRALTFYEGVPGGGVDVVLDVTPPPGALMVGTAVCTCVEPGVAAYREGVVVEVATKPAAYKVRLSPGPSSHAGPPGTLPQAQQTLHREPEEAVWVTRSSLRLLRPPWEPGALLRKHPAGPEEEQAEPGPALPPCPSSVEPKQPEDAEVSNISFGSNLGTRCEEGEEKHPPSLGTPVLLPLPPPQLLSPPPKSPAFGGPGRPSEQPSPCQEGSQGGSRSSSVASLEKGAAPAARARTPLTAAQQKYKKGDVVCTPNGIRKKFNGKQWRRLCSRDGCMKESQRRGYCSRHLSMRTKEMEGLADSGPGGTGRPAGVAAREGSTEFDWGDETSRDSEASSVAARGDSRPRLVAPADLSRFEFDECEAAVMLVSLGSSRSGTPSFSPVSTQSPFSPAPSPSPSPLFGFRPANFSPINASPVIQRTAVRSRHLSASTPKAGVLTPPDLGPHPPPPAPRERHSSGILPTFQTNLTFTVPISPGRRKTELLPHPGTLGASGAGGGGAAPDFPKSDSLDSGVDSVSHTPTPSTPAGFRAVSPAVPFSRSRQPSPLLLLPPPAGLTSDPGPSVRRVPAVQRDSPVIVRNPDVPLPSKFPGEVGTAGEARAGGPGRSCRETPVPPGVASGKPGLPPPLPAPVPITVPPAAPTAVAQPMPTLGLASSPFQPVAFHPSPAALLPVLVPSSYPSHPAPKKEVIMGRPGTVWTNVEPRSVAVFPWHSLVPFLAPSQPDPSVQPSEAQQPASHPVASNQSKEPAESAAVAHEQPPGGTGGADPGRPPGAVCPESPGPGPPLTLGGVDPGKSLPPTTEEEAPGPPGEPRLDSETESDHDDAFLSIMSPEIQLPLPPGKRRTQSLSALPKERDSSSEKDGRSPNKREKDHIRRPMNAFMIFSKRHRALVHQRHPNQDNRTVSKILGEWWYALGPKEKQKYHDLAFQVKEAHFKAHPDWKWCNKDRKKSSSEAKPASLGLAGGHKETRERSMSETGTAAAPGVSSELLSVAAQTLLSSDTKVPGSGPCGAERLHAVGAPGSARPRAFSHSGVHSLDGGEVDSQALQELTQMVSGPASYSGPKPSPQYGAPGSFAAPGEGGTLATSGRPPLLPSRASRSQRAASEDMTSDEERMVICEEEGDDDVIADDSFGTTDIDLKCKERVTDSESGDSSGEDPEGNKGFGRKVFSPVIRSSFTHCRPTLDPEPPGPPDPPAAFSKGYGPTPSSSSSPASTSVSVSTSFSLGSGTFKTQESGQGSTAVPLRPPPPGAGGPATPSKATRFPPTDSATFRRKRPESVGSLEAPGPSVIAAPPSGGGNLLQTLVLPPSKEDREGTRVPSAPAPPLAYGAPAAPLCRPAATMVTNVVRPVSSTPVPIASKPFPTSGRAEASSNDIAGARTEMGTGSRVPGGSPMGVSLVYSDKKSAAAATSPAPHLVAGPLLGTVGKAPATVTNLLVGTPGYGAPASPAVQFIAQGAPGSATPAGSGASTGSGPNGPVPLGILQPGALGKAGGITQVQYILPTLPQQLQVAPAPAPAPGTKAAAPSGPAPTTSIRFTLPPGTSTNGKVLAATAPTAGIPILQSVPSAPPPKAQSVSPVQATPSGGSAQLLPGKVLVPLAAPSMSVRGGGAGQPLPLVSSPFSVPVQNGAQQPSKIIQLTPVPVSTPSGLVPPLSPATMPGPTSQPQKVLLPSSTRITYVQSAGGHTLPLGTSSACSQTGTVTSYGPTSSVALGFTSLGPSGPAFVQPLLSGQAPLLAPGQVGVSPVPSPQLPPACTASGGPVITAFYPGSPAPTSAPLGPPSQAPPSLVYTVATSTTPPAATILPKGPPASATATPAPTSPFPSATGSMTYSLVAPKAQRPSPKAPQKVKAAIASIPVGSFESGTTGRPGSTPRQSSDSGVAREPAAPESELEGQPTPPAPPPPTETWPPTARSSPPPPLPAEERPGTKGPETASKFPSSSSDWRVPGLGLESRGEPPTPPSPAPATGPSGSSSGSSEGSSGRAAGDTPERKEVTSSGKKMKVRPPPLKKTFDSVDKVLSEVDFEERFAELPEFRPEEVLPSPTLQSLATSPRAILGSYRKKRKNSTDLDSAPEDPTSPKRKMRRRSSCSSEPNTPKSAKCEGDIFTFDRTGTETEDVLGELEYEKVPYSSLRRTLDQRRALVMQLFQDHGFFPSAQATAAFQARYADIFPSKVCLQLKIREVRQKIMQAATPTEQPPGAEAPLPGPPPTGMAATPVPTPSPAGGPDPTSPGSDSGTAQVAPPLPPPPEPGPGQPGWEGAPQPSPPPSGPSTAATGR
UniProt Q8K4L3: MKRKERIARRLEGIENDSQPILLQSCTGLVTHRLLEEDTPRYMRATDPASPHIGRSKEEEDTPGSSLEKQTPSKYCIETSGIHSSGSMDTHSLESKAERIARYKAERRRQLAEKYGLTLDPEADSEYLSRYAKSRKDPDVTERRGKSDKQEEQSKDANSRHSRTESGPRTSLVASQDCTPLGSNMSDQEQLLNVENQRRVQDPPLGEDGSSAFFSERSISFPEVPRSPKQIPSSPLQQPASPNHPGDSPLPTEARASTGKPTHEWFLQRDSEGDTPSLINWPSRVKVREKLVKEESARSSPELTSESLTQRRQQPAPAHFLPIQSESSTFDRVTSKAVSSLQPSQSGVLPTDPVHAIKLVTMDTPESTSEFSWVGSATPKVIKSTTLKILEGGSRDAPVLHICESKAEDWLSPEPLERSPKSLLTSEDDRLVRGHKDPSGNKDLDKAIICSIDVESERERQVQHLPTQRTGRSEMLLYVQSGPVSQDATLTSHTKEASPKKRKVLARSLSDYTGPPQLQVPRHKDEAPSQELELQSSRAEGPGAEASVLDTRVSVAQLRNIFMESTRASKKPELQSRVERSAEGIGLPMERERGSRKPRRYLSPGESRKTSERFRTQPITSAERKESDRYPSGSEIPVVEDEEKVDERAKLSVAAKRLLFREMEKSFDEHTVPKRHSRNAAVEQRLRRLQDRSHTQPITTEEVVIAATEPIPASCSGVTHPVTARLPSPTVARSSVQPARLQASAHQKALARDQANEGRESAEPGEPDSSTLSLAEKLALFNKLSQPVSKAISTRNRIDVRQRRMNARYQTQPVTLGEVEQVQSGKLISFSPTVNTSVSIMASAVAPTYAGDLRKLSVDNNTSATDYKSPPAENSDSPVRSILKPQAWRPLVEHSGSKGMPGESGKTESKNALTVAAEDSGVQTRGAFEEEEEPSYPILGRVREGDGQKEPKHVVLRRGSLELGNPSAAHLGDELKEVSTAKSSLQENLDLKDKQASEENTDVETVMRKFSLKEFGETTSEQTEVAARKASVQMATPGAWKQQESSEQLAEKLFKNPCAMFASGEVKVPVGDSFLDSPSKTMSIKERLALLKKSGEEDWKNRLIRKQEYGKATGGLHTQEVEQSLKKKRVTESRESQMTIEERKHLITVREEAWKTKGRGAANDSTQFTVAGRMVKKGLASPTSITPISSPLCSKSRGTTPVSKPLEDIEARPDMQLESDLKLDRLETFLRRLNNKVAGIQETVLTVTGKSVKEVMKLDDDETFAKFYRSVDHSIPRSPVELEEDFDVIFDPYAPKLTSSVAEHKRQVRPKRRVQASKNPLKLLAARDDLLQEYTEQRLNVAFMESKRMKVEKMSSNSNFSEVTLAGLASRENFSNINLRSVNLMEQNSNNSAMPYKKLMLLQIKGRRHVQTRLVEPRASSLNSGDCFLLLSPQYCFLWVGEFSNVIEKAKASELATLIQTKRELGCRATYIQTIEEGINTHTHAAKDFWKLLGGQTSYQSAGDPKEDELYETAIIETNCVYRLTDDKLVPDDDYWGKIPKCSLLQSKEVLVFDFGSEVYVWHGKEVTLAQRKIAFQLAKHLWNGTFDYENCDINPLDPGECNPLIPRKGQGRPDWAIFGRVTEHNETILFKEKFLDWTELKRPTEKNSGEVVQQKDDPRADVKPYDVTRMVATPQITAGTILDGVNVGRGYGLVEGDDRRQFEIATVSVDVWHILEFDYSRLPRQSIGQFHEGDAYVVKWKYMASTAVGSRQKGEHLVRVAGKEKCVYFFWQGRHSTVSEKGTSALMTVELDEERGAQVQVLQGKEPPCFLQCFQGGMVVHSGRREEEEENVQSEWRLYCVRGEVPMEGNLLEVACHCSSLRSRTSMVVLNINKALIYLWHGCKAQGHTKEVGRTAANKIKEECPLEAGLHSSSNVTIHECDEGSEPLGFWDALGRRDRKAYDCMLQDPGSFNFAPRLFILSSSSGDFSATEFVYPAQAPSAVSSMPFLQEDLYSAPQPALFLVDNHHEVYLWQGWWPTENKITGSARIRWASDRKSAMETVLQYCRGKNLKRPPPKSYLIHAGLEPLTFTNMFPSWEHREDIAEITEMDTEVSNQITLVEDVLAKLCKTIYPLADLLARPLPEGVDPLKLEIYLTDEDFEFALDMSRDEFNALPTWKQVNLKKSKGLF

Assays:
[1] = biological target: BRG1 (SMARCA4) (mouse (endogenous in P1 and P0.5 brain)) (UniProt Q3TKT4); experiment: co-IP
[2] = biological target: Capicua (CIC) (mouse (endogenous in P1 and P0.5 brain)) (UniProt Q924A2); experiment: co-IP

SVIL, an actin-binding protein encoded by supervillin gene (from UniProt Q8K4L3 1-2170)
binding [1]: binds
binding [2]: binds
